Results on 25 compounds are retold here after PubChem BioAssay AID248 (DTP/NCI, 2004).

The assay concerns L1210 leukemia ip in BDF1 mice, survival T/C. The experiment in a line: NCI In Vivo Anticancer Drug Screen. Data for tumor model L1210 Leukemia (intraperitoneal) in B6D2F1 (BDF1) mice. The following applies: T/C endpoint: mean survival time, higher T/C = longer survival.
[1] abbreviates: dose: 200.0 mg/kg/injection, schedule: Q01DX009 (ip), vehicle: Klucel (hydroxypropylcellulose) (HPC).
Setting [2] is: dose: 400.0 mg/kg/injection, schedule: Q01DX009 (ip), vehicle: Klucel (hydroxypropylcellulose) (HPC).
Where [3] appears, read: dose: 400.0 mg/kg/injection, schedule: Q01DX009 (ip), vehicle: saline with Tween-80.
Where [4] appears, read: dose: 100.0 mg/kg/injection, schedule: Q04DX003 (ip), vehicle: saline.
Setting [5] is: dose: 200.0 mg/kg/injection, schedule: Q04DX003 (ip), vehicle: saline.
Setting [6] is: dose: 400.0 mg/kg/injection, schedule: Q04DX003 (ip), vehicle: saline.
The mark [7] stands for this setting: dose: 400.0 mg/kg/injection, schedule: Q04DX003 (ip), vehicle: Klucel (hydroxypropylcellulose) (HPC).
Setting [8] is: dose: 100.0 mg/kg/injection, schedule: Q04DX003 (ip), vehicle: Klucel (hydroxypropylcellulose) (HPC).
[9] abbreviates: dose: 200.0 mg/kg/injection, schedule: Q04DX003 (ip), vehicle: Klucel (hydroxypropylcellulose) (HPC).
The mark [10] stands for this setting: dose: 400.0 mg/kg/injection, schedule: Q01DX009 (ip), vehicle: saline.
The mark [11] stands for this setting: dose: 300.0 mg/kg/injection, schedule: Q01DX001 (ip), vehicle: saline.

The list does not hold the whole screen: it is rich in T/C values a quarter to a half above the control, in often repeated tests (any T/C) and in doses without a T/C. Further doses and runs are listed elsewhere. T/C: endpoint of the treated group in % of that of the vehicle group. Some entries give survivors of the animals treated and no T/C: the source holds a T/C of zero for them, seemingly a mark for toxic or unscored doses. Some survivor counts are full or nearly so, which does not show that the dose was tolerated: survival well below the control is almost never listed, so the zero probably covers shortened survival too. Counts of survivors are from the toxicity check (mostly the fifth day) where no day follows; animals may have died later. Schedule codes are those of the source, taken here to give the interval after Q, in days (D) or hours (H), and the number of doses after X. Some schedules carry Z or #; the key to these is not given. Where survival is the endpoint, this PubChem deposit counts one and a half times the control or more as active, and values a quarter to a half above the control carry no call in these data; other NCI protocols may use other cut-offs. Some entries were tested several times; the values are given in rising order. Some T/C values carry the count of animals alive at the toxicity check (mostly the fifth day); without a count, all were alive then.

`CCc1ccc(/C(C#N)=C/c2ccc(N(C)CCC#N)cc2)cc1`: the survivor count reads like this: (dose: 100.0 mg/kg/injection, schedule: Q01DX009 (ip), vehicle: Klucel (hydroxypropylcellulose) (HPC)) 6 of 6; under setting [1], 6 of 6; under setting [2], 6 of 6.

Take `COc1ccc(Cl)c(NC(=O)Nc2cc(Cl)ccc2C)c1`: the survivor count is 3 of 3 (dose: 200.0 mg/kg/injection, schedule: Q01DX009 (ip), vehicle: saline with Tween-80) and 3 of 3 under setting [3].

Turning to `c1cc[c]([Hg][S]c2nc3ccccc3s2)cc1`, the survivor count is, setting by setting: (dose: 200.0 mg/kg/injection, schedule: Q01DX001 (ip), vehicle: carboxymethylcellulose (CMC)) 1 of 4; (dose: 400.0 mg/kg/injection, schedule: Q01DX001 (ip), vehicle: carboxymethylcellulose (CMC)) 0 of 4.

Turning to `CCCC(C(=O)O)(c1ccccc1)c1ccccc1`, the survivor count (dose: 400.0 mg/kg/injection, schedule: Q04DX002 (ip), vehicle: gum acacia) is recorded as 2 of 3.

Take `C[N+](C)(C)C1CS(=O)C1` (stereo not given): the survivor count is, setting by setting: under setting [4], 5 of 6; under setting [5], 1 of 6; under setting [6], 0 of 6.

Take `ClCCCOC1CCCCO1` (stereo not given): the survivor count under setting [7] is 3 of 3.

Take `CCCCN(CCCC)CCNc1cc(C)nc(/N=C(\N)Nc2ccc(Cl)c(Cl)c2)n1`: the survivor count (dose: 150.0 mg/kg/injection, schedule: Q01DX009 (ip), vehicle: other) is 1 of 6.

Regarding `C=C(Br)CN(CC)CC`, the survivor count (dose: 50.0 mg/kg/injection, schedule: Q01DX009 (ip), vehicle: Klucel (hydroxypropylcellulose) (HPC)) is 2 of 6; the survivor count under setting [8] is 0 of 6; the survivor count under setting [9] is recorded as 0 of 6; the survivor count under setting [7] is 0 of 6.

On to `O=C(O)c1ccc([N+](=O)[O-])cc1C(=O)O`, for which the survivor count under setting [10] is 0 of 6 and the survivor count under setting [7] is listed as 3 of 6.

Consider `CCOC(=O)NC(CCN(C)C)(c1cccc2ccccc12)C(C)C` (stereo not given), for which the survivor count is 0 of 6 under setting [1]; 2 of 3 (dose: 200.0 mg/kg/injection, schedule: Q04DX002 (ip), vehicle: Klucel (hydroxypropylcellulose) (HPC)); 0 of 6 under setting [2].

Consider `CCC1(C)N=C(N)N=C(N)N1c1ccc(Cl)c(Cl)c1` (stereo not given), for which the survivor count under setting [11] was 2 of 6.

With `CCCCCCCCCCCCCCCCCC`, the survivor count (dose: 400.0 mg/kg/injection, schedule: Q04DX002 (ip), vehicle: other) is on record as 3 of 3.

Regarding `Nc1nc(=S)c2[nH]c(N=Nc3ccc(S(N)(=O)=O)cc3)nc2[nH]1`, the T/C by setting is: under setting [8], 145 and 147 % of control; under setting [9], 147 % of control. Besides, the survivor count under setting [7] was 3 of 6.

Turning to `C=C(CC(N)=O)C(=O)O` (tested in a mixture with another compound), the T/C runs as follows: (dose: 175.0 mg/kg/injection, schedule: Q01DX009 (ip), vehicle: saline) 125 % of control; (dose: 177.0 mg/kg/injection, schedule: Q01DX001 (ip), vehicle: saline) 130 % of control; (dose: 177.0 mg/kg/injection, schedule: Q01DX009 (ip), vehicle: saline) 137 % of control; (dose: 400.0 mg/kg/injection, schedule: Q01DX001 (ip), vehicle: saline, evaluated on day 30) 127 % of control; (dose: 400.0 mg/kg/injection, schedule: Q01DX001 (ip), vehicle: saline, run until all animals had died) 127 % of control; (dose: 600.0 mg/kg/injection, schedule: Q01DX001 (ip), vehicle: saline, evaluated on day 30) 134 % of control. Further, for the setting “dose: 600.0 mg/kg/injection, schedule: Q01DX001 (ip), vehicle: saline, run until all animals had died”, the T/C was 148 % of control. In addition, the survivor count (dose: 600.0 mg/kg/injection, schedule: Q01DX009 (ip), vehicle: saline) is reported as 1 of 6.

`CC(/C=N/N(C)C)=N\N(C)C`: the survivor count under setting [6] is recorded as 0 of 6.

For `CC(C)C1C(=O)N2CCCC2C2(O)OC(NC(=O)C3C=C4c5cccc6[nH]cc(c56)CC4N(C)C3)(C(C)C)C(=O)N12` (stereo not given), the survivor count reads like this: (dose: 200.0 mg/kg/injection, schedule: Q01DX009 (ip), vehicle: saline) 1 of 6; under setting [10], 0 of 6.

For the compound `O=C1O/C(=C/c2ccccc2)C(O)=C1c1ccccc1`, the survivor count (dose: 400.0 mg/kg/injection, schedule: Q04DX002 (ip), vehicle: saline with Tween-80) is 3 of 3.

As to `OCCN1CCN(CC/C=C2/c3ccccc3Sc3ccc(C(F)(F)F)cc32)CC1`, the survivor count runs as follows: (dose: 6.25 mg/kg/injection, schedule: Q03HX024 (ip), vehicle: saline) 4 of 6; (dose: 12.5 mg/kg/injection, schedule: Q03HX024 (ip), vehicle: saline) 1 of 6; (dose: 16.0 mg/kg/injection, schedule: Q01DX009 (ip), vehicle: saline) 5 of 6; (dose: 32.0 mg/kg/injection, schedule: Q01DX009 (ip), vehicle: saline) 0 of 6; (dose: 50.0 mg/kg/injection, schedule: Q04DX003 (ip), vehicle: saline) 3 of 4; (dose: 75.0 mg/kg/injection, schedule: Q01DX001 (ip), vehicle: saline) 2 of 6. Besides, the survivor count runs as follows: (dose: 80.0 mg/kg/injection, schedule: Q04DX003 (ip), vehicle: saline) 4 of 6; under setting [4], 1 of 4; (dose: 150.0 mg/kg/injection, schedule: Q01DX001 (ip), vehicle: saline) 1 of 6; under setting [5], 0 of 4; under setting [11], 0 of 6; under setting [6], 0 of 4. In addition, the T/C runs as follows: (dose: 20.0 mg/kg/injection, schedule: Q04DX003 (ip), vehicle: saline) 126 % of control [5 of 6 alive]; (dose: 25.0 mg/kg/injection, schedule: Q04DX003 (ip), vehicle: saline) 142 and 146 % of control; (dose: 40.0 mg/kg/injection, schedule: Q04DX003 (ip), vehicle: saline) 146 % of control.

With `CCCCCCC1CCCCN1` (stereo not given), the survivor count (dose: 80.0 mg/kg/injection, schedule: Q01DX001 (ip), vehicle: saline) is reported as 1 of 4.

Turning to `COc1ccc(Cl)cc1NC(=O)/C=C/c1ccccc1`, the survivor count is, setting by setting: (dose: 100.0 mg/kg/injection, schedule: Q01DX009 (ip), vehicle: saline with Tween-80) 3 of 3; (dose: 400.0 mg/kg/injection, schedule: Q01DX001 (ip), vehicle: saline with Tween-80) 6 of 6; under setting [3], 6 of 6.

In the case of `CN1CCCC(CC2c3ccccc3Sc3ccccc32)C1` (stereo not given), under “dose: 64.0 mg/kg/injection, schedule: Q01DX015 (ip), vehicle: carboxymethylcellulose (CMC)”, the survivor count is given as 4 of 6.

With `O=C(Nc1cccc(C2=NCCN2)c1)c1ccc(OCCCOc2ccc(C(=O)Nc3cccc(C4=NCCN4)c3)cc2)cc1`, the survivor count runs as follows: (dose: 50.0 mg/kg/injection, schedule: Q01DX Z (ip), vehicle: water) 2 of 6; (dose: 100.0 mg/kg/injection, schedule: Q01DX Z (ip), vehicle: water) 0 of 6.

For `CCN(CC)CCCC(C)Nc1ccnc(/C=C/c2ccc(C(F)(F)F)cc2)c1` (stereo not given), the survivor count runs as follows: (dose: 200.0 mg/kg/injection, schedule: Q01DX001 (ip), vehicle: saline) 1 of 6; (dose: 400.0 mg/kg/injection, schedule: Q01DX001 (ip), vehicle: saline) 0 of 6.

Consider `NCCNC12CC3CC(CC(C3)C1)C2`, for which, under “dose: 400.0 mg/kg/injection, schedule: Q04DX002 (ip), vehicle: saline”, the survivor count is 1 of 3.

For the compound `O=Cc1cc(Cl)cc(Cl)c1OC(=O)c1ccccc1`, the survivor count under setting [2] is reported as 0 of 6.
